# Earlier results, collected in patent US6833342B2, “Method of deodorizing and/or cleaning carpet using a composition comprising odor control agent” (The Procter & Gamble Company, priority 1999, dated 2004).
# Some results were stated once for a whole list of compounds, not compound by compound. At least one compound was matched to its structure with a doubt left.
# Conditions: cited from earlier work
smiles,measurement,value
"O=c1[nH]sc2ccccc12 [Proxel, 1,2-benzisothiazolin-3-one]",stability over a wide pH range,4-12 pH
